Reference: PubChem BioAssay AID1159578 (Peter MacCallum Cancer Centre, 2015)

Screen: 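Genome-wide hunt for genes controlling movement of lymphatic endothelial cells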 (primary screen)
Cell system: human lymphatic endothelial cells
Knock-down reagent: siRNA pool against human genes, 40 nM
Duration: 48 h after transfection
Detection: 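High-content imaging of dye-stained cells in a scratch assay measures filled wound area and nuclei per well; duplicate means given as ratio to mock and robust z-score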
Reading the numbers: migration robust z-score: higher = faster migration into the scratch; nuclei per well: higher = more cells in the well
Hit rule: 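Migration changed when robust z exceeds 2 or falls below -2 and mean nuclei number is at least 3300; otherwise not called changed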
Meaning of the calls: active = migration changed; inactive = no migration change, or too few cells
The whole screen tested about 18,000 reagents; below is a part drawn at random. About 1,030 of them (5.7%) were called active. 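Inactive calls also include pools with fewer than 3300 nuclei, whose migration was not assessed.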 Raw values are not corrected between plates. Unmarked entries are inactive. Not all columns of the deposit are shown.

{"gene": "MAGEC1 (MAGE family member C1)", "migration robust z-score": 0.22, "nuclei per well, duplicate mean": 6741}
{"gene": "TPPP (tubulin polymerization promoting protein)", "migration robust z-score": -0.26, "nuclei per well, duplicate mean": 5799}
{"gene": "TMEM41A (transmembrane protein 41A)", "migration robust z-score": -0.21, "nuclei per well, duplicate mean": 6870}
{"gene": "PROCA1 (protein interacting with cyclin A1)", "migration robust z-score": -0.26, "nuclei per well, duplicate mean": 5937}
{"gene": "ENDOU (endonuclease, poly(U) specific)", "migration robust z-score": 0.94, "nuclei per well, duplicate mean": 5298}
{"gene": "TENM1 (teneurin transmembrane protein 1)", "migration robust z-score": 0.52, "nuclei per well, duplicate mean": 5910}
{"gene": "SLC17A3", "migration robust z-score": 0.23, "nuclei per well, duplicate mean": 5180}
{"gene": "ZNF432 (zinc finger protein 432)", "migration robust z-score": -0.72, "nuclei per well, duplicate mean": 5167}
{"gene": "LY6G5C (lymphocyte antigen 6 family member G5C)", "migration robust z-score": 1.66, "nuclei per well, duplicate mean": 6783}
{"gene": "RFC3 (replication factor C subunit 3)", "migration robust z-score": 0.73, "nuclei per well, duplicate mean": 5146}
{"gene": "TAS2R9 (taste 2 receptor member 9)", "migration robust z-score": -1.4, "nuclei per well, duplicate mean": 6274}
{"gene": "CLEC2D (C-type lectin domain family 2 member D)", "migration robust z-score": 0.32, "nuclei per well, duplicate mean": 6015}
{"gene": "GPATCH2 (G-patch domain containing 2)", "migration robust z-score": 0.07, "nuclei per well, duplicate mean": 4930}
{"gene": "PADI4 (peptidyl arginine deiminase 4)", "migration robust z-score": 0.26, "nuclei per well, duplicate mean": 5390}
{"gene": "HNRNPA1 (heterogeneous nuclear ribonucleoprotein A1)", "migration robust z-score": 0.1, "nuclei per well, duplicate mean": 5830}
{"gene": "OR9A4 (olfactory receptor family 9 subfamily A member 4)", "migration robust z-score": 0.64, "nuclei per well, duplicate mean": 6697}
{"gene": "CDCP2 (CUB domain containing protein 2)", "migration robust z-score": 0.26, "nuclei per well, duplicate mean": 4839}
{"gene": "LDAH (lipid droplet associated hydrolase)", "migration robust z-score": -0.86, "nuclei per well, duplicate mean": 5779}
{"gene": "ZNF235 (zinc finger protein 235)", "migration robust z-score": -0.16, "nuclei per well, duplicate mean": 6023}
{"gene": "OR1E1 (olfactory receptor family 1 subfamily E member 1)", "migration robust z-score": 0.95, "nuclei per well, duplicate mean": 5738}
{"gene": "GPC3 (glypican 3)", "migration robust z-score": -1.09, "nuclei per well, duplicate mean": 4972}
{"gene": "GTF2A1 (general transcription factor IIA subunit 1)", "migration robust z-score": 0.5, "nuclei per well, duplicate mean": 5022}
{"gene": "SAMHD1", "migration robust z-score": 0.18, "nuclei per well, duplicate mean": 5648}
{"gene": "ZNF564 (zinc finger protein 564)", "migration robust z-score": 0.19, "nuclei per well, duplicate mean": 5014}
{"gene": "USP12 (ubiquitin specific peptidase 12)", "migration robust z-score": 0.34, "nuclei per well, duplicate mean": 4740}
{"gene": "CRYBB1 (crystallin beta B1)", "migration robust z-score": "2.66 (active)", "nuclei per well, duplicate mean": 7050}
{"gene": "ZNF197 (zinc finger protein 197)", "migration robust z-score": -1.22, "nuclei per well, duplicate mean": 5673}

No new results follow: entries from further up.
{"gene": "LDAH (lipid droplet associated hydrolase)", "migration robust z-score": -0.86, "nuclei per well, duplicate mean": 5779}
{"gene": "ZNF235 (zinc finger protein 235)", "migration robust z-score": -0.16, "nuclei per well, duplicate mean": 6023}
{"gene": "OR1E1 (olfactory receptor family 1 subfamily E member 1)", "migration robust z-score": 0.95, "nuclei per well, duplicate mean": 5738}
{"gene": "GPC3 (glypican 3)", "migration robust z-score": -1.09, "nuclei per well, duplicate mean": 4972}
